PubChem BioAssay AID1259424 – University of Nebraska Medical Center | 2018

Screen: 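Find knockdowns that reproduce the expression shifts seen after KSR1 loss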 (primary screen)
System: human HCT116 colon cancer cells
Reagent: siRNA pool against human genes, 50 nM
Measured: 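Log2 levels of six mRNAs (branched-DNA multiplex), adjusted by two reference genes and the non-targeting median, then scored against the average KSR1 knockdown pattern as Pearson r and euclidean distance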
Reading the numbers: mean correlation with KSR1 profile and KSR1 correlation: higher = expression change more like KSR1 knockdown; mean distance from KSR1 profile: higher = expression change less like KSR1 knockdown
Here is one part, drawn at random, of about 14,000 deposited reagents. 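Higher correlation or smaller distance means closer resemblance to KSR1 loss; control wells, including KSR1 knockdowns, recur on many plates.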 The record does not give: the time to read-out.

| mean correlation with KSR1 profile | mean distance from KSR1 profile | KSR1 correlation, replicate 1 | KSR1 correlation, replicate 2 | KSR1 correlation, replicate 3 | gene |
| --- | --- | --- | --- | --- | --- |
| -0.587 | 2.4 | -0.667 | -0.402 | -0.511 | NTHL1 |
| 0.0144 | 2.1 | 0.0796 | -0.00221 | 0.496 | ZBTB32 |
| -0.693 | 3.58 | -0.701 | -0.543 | -0.448 | MYORG |
| -0.193 | 1.62 | -0.2 | -0.059 | -0.395 | TBCB |
| 0.653 | 1.83 | 0.559 | 0.629 | 0.734 | MRAS |
| -0.569 | 2.48 | -0.482 | -0.652 | -0.765 | NGB |
| -0.391 | 2.61 | -0.104 | -0.596 | -0.425 | LSM5 |
| 0.716 | 1.97 | 0.712 | 0.797 | 0.654 | UBA5 |
| 0.453 | 1.2 | 0.196 | 0.381 | 0.467 | SLC5A2 |
| 0.0777 | 2.37 | 0.0258 | 0.295 | 0.478 | FGF18 |
| 0.0298 | 2.29 | 0.169 | 0.16 | -0.182 | KIAA0319L |
| -0.689 | 1.49 | -0.619 | -0.8 | -0.262 | SLC18A3 |
| 0.595 | 1.25 | 0.482 | 0.643 | 0.514 | CCDC144A |
| 0.206 | 2.51 | 0.0963 | 0.114 | 0.288 | B2M |
| 0.155 | 1.15 | 0.147 | -0.0361 | 0.0285 | FCHO1 |
| 0.293 | 2.14 | 0.179 | 0.354 | 0.231 | SHROOM4 |
| 0.343 | 1.94 | 0.614 | 0.226 | 0.133 | FSCN3 |
| -0.0738 | 1.37 | -0.0453 | -0.264 | -0.217 | KEL |
| -0.0338 | 2.58 | -0.0565 | -0.0496 | -0.104 | MAGEA5P |
| 0.0791 | 4.36 | -0.0384 | -0.411 | 0.285 | CALCOCO1 |
| -0.621 | 6.09 | -0.332 | -0.533 | -0.615 | PLEKHB1 |
| 0.354 | 2.18 | 0.447 | 0.333 | 0.224 | QPRT |
| -0.367 | 1.77 | -0.0837 | -0.7 | -0.105 | ZFP36 |
| -0.835 | 3.67 | -0.746 | -0.676 | -0.751 | TP53INP2 |
| -0.714 | 3.14 | -0.514 | -0.539 | -0.706 | MRPS2 |
| -0.0206 | 1.58 | -0.144 | 0.163 | 0.134 | LHX2 |
| 0.207 | 3 | 0.28 | 0.264 | 0.169 | OR7A5 |
| -0.718 | 3.41 | -0.64 | -0.796 | -0.59 | CNOT1 |
| -0.654 | 1.87 | -0.614 | -0.374 | -0.62 | MOCOS |
| -0.226 | 7.44 | -0.301 | -0.143 | -0.311 | NAPA |
| 0.311 | 2.5 | 0.332 | 0.423 | 0.26 | MINK1 |
| -0.277 | 2.57 | -0.284 | -0.379 | -0.249 | XRCC4 |
| -0.0849 | 0.747 | 0.398 | -0.12 | -0.153 | VSIG10 |
| 0.458 | 3.14 | 0.531 | 0.0594 | 0.422 | FNDC11 |
| 0.455 | 1.63 | 0.393 | 0.489 | 0.511 | S1PR3 |
| 0.484 | 1.14 | 0.626 | 0.293 | 0.326 | PPP4R1 |
| 0.527 | 2.83 | 0.468 | 0.466 | 0.388 | VAMP8 |
| 0.674 | 4.09 | 0.509 | 0.545 | 0.635 | TRIM63 |
| -0.0656 | 2.6 | 0.136 | -0.134 | -0.375 | ANGPT4 |
| -0.857 | 2.04 | -0.468 | -0.75 | -0.865 | NAT1 |
| -0.234 | 3.46 | -0.17 | -0.264 | -0.229 | FPGT |
| -0.375 | 2.42 | -0.0716 | -0.482 | -0.4 | UTS2 |
| -0.199 | 2.64 | -0.302 | -0.112 | -0.219 | MED27 |
| 0.0691 | 2.65 | -0.159 | 0.415 | 0.141 | SLC39A7 |
| -0.342 | 1.85 | -0.237 | 0.0904 | -0.531 | ARHGEF2 |
| 0.266 | 1.58 | 0.086 | 0.379 | 0.272 | NAA15 |
| -0.489 | 5.04 | 0.0516 | -0.022 | -0.443 | EIF3B |
| -0.197 | 2.73 | -0.134 | -0.137 | -0.086 | ATXN7L1 |
| 0.258 | 2.62 | 0.528 | 0.268 | -0.0833 | PLK2 |
| -0.166 | 1.9 | -0.213 | -0.0902 | -0.452 | HLA-DPB1 |
| -0.712 | 2.32 | -0.739 | -0.752 | -0.586 | SOST |
| -0.0978 | 2.03 | 0.0414 | -0.0273 | -0.201 | ACMSD |
| 0.544 | 1.44 | 0.658 | 0.68 | -0.0116 | GRM5 |
| 0.762 | 1.03 | 0.814 | 0.73 | 0.73 | BMP2 |
| -0.743 | 2.41 | -0.838 | -0.497 | -0.611 | RGL4 |
| 0.489 | 1.47 | 0.563 | 0.547 | 0.534 | OR1D2 |
| 0.599 | 1.58 | 0.552 | 0.106 | 0.789 | NFKBIA |
| -0.247 | 2.14 | -0.195 | -0.342 | -0.496 | DISC1 |
| 0.407 | 1.34 | 0.321 | 0.483 | 0.299 | SPAM1 |
| -0.262 | 4.8 | 0.0971 | -0.416 | -0.286 | SPTBN4 |
| -0.0991 | 1.55 | -0.104 | 0.204 | -0.172 | NVL |
| -0.464 | 2.36 | -0.404 | -0.384 | -0.752 | H4C7 |
| -0.201 | 1.7 | -0.318 | -0.435 | -0.172 | MAT2A |
